{"source": "the NIST ThermoML archive (doi:10.1016/j.fluid.2005.07.009)", "assay": "molar heat capacity at constant pressure", "conditions": "101.33 kPa, Small sample (50 mg) DSC", "note": "± gives the expanded uncertainty stated by the source."}
{"smiles": "CCCCCCCCCO", "note": "[nonan-1-ol]", "values": [{"measurement": "molar heat capacity at constant pressure", "setting": "217.02 K, Crystal", "value": "195.3 ± 3.9", "unit": "J/K/mol"}, {"measurement": "molar heat capacity at constant pressure", "setting": "218.14 K, Crystal", "value": "196.38 ± 3.9", "unit": "J/K/mol"}, {"measurement": "molar heat capacity at constant pressure", "setting": "219.82 K, Crystal", "value": "196.77 ± 3.9", "unit": "J/K/mol"}, {"measurement": "molar heat capacity at constant pressure", "setting": "220.01 K, Crystal", "value": "196.98 ± 3.9", "unit": "J/K/mol"}, {"measurement": "molar heat capacity at constant pressure", "setting": "221.07 K, Crystal", "value": "197.26 ± 4", "unit": "J/K/mol"}, {"measurement": "molar heat capacity at constant pressure", "setting": "222.06 K, Crystal", "value": "199.54 ± 4", "unit": "J/K/mol"}, {"measurement": "molar heat capacity at constant pressure", "setting": "223.11 K, Crystal", "value": "200.68 ± 4", "unit": "J/K/mol"}, {"measurement": "molar heat capacity at constant pressure", "setting": "224.89 K, Crystal", "value": "201.22 ± 4", "unit": "J/K/mol"}, {"measurement": "molar heat capacity at constant pressure", "setting": "225.38 K, Crystal", "value": "201.57 ± 4", "unit": "J/K/mol"}, {"measurement": "molar heat capacity at constant pressure", "setting": "226.05 K, Crystal", "value": "203.08 ± 4.1", "unit": "J/K/mol"}, {"measurement": "molar heat capacity at constant pressure", "setting": "227.04 K, Crystal", "value": "204.3 ± 4.1", "unit": "J/K/mol"}, {"measurement": "molar heat capacity at constant pressure", "setting": "228.26 K, Crystal", "value": "206.7 ± 4.1", "unit": "J/K/mol"}, {"measurement": "molar heat capacity at constant pressure", "setting": "229.23 K, Crystal", "value": "207.14 ± 4.1", "unit": "J/K/mol"}, {"measurement": "molar heat capacity at constant pressure", "setting": "230.03 K, Crystal", "value": "207.39 ± 4.2", "unit": "J/K/mol"}, {"measurement": "molar heat capacity at constant pressure", "setting": "231.26 K, Crystal", "value": "211.42 ± 4.2", "unit": "J/K/mol"}, {"measurement": "molar heat capacity at constant pressure", "setting": "233.02 K, Crystal", "value": "212.23 ± 4.2", "unit": "J/K/mol"}, {"measurement": "molar heat capacity at constant pressure", "setting": "233.27 K, Crystal", "value": "212.33 ± 4.2", "unit": "J/K/mol"}, {"measurement": "molar heat capacity at constant pressure", "setting": "234.62 K, Crystal", "value": "212.65 ± 4.2", "unit": "J/K/mol"}, {"measurement": "molar heat capacity at constant pressure", "setting": "235.18 K, Crystal", "value": "215.05 ± 4.3", "unit": "J/K/mol"}, {"measurement": "molar heat capacity at constant pressure", "setting": "236.09 K, Crystal", "value": "217.22 ± 4.3", "unit": "J/K/mol"}, {"measurement": "molar heat capacity at constant pressure", "setting": "237.12 K, Crystal", "value": "218.22 ± 4.4", "unit": "J/K/mol"}, {"measurement": "molar heat capacity at constant pressure", "setting": "238.16 K, Crystal", "value": "219.07 ± 4.4", "unit": "J/K/mol"}, {"measurement": "molar heat capacity at constant pressure", "setting": "239.02 K, Crystal", "value": "219.63 ± 4.4", "unit": "J/K/mol"}, {"measurement": "molar heat capacity at constant pressure", "setting": "240.11 K, Crystal", "value": "221.25 ± 4.4", "unit": "J/K/mol"}, {"measurement": "molar heat capacity at constant pressure", "setting": "241.15 K, Crystal", "value": "223.4 ± 4.5", "unit": "J/K/mol"}, {"measurement": "molar heat capacity at constant pressure", "setting": "242.06 K, Crystal", "value": "224.92 ± 4.5", "unit": "J/K/mol"}, {"measurement": "molar heat capacity at constant pressure", "setting": "243.08 K, Crystal", "value": "227.73 ± 4.5", "unit": "J/K/mol"}, {"measurement": "molar heat capacity at constant pressure", "setting": "244.17 K, Crystal", "value": "228.57 ± 4.6", "unit": "J/K/mol"}, {"measurement": "molar heat capacity at constant pressure", "setting": "245.08 K, Crystal", "value": "231.13 ± 4.6", "unit": "J/K/mol"}, {"measurement": "molar heat capacity at constant pressure", "setting": "246.16 K, Crystal", "value": "232.99 ± 4.7", "unit": "J/K/mol"}, {"measurement": "molar heat capacity at constant pressure", "setting": "281.12 K, Liquid", "value": "323.47 ± 6.5", "unit": "J/K/mol"}, {"measurement": "molar heat capacity at constant pressure", "setting": "283.23 K, Liquid", "value": "325.33 ± 6.5", "unit": "J/K/mol"}, {"measurement": "molar heat capacity at constant pressure", "setting": "285.32 K, Liquid", "value": "327.22 ± 6.5", "unit": "J/K/mol"}, {"measurement": "molar heat capacity at constant pressure", "setting": "287.14 K, Liquid", "value": "329.03 ± 6.6", "unit": "J/K/mol"}, {"measurement": "molar heat capacity at constant pressure", "setting": "289.01 K, Liquid", "value": "330.95 ± 6.6", "unit": "J/K/mol"}, {"measurement": "molar heat capacity at constant pressure", "setting": "291.14 K, Liquid", "value": "333.2 ± 6.7", "unit": "J/K/mol"}, {"measurement": "molar heat capacity at constant pressure", "setting": "293.02 K, Liquid", "value": "335.22 ± 6.7", "unit": "J/K/mol"}, {"measurement": "molar heat capacity at constant pressure", "setting": "295.38 K, Liquid", "value": "338.09 ± 6.8", "unit": "J/K/mol"}, {"measurement": "molar heat capacity at constant pressure", "setting": "297.54 K, Liquid", "value": "340.92 ± 6.8", "unit": "J/K/mol"}, {"measurement": "molar heat capacity at constant pressure", "setting": "299.13 K, Liquid", "value": "342.32 ± 6.8", "unit": "J/K/mol"}, {"measurement": "molar heat capacity at constant pressure", "setting": "301.41 K, Liquid", "value": "344.69 ± 6.9", "unit": "J/K/mol"}, {"measurement": "molar heat capacity at constant pressure", "setting": "303.29 K, Liquid", "value": "346.6 ± 6.9", "unit": "J/K/mol"}, {"measurement": "molar heat capacity at constant pressure", "setting": "305.67 K, Liquid", "value": "349.55 ± 7", "unit": "J/K/mol"}, {"measurement": "molar heat capacity at constant pressure", "setting": "307.02 K, Liquid", "value": "350.87 ± 7", "unit": "J/K/mol"}, {"measurement": "molar heat capacity at constant pressure", "setting": "309.17 K, Liquid", "value": "353.11 ± 7.1", "unit": "J/K/mol"}, {"measurement": "molar heat capacity at constant pressure", "setting": "311.06 K, Liquid", "value": "355.46 ± 7.1", "unit": "J/K/mol"}, {"measurement": "molar heat capacity at constant pressure", "setting": "313.19 K, Liquid", "value": "358.03 ± 7.2", "unit": "J/K/mol"}, {"measurement": "molar heat capacity at constant pressure", "setting": "315.22 K, Liquid", "value": "360.47 ± 7.2", "unit": "J/K/mol"}, {"measurement": "molar heat capacity at constant pressure", "setting": "317.08 K, Liquid", "value": "362.75 ± 7.3", "unit": "J/K/mol"}, {"measurement": "molar heat capacity at constant pressure", "setting": "319.19 K, Liquid", "value": "364.89 ± 7.3", "unit": "J/K/mol"}, {"measurement": "molar heat capacity at constant pressure", "setting": "321.24 K, Liquid", "value": "367.74 ± 7.3", "unit": "J/K/mol"}, {"measurement": "molar heat capacity at constant pressure", "setting": "323.77 K, Liquid", "value": "370.56 ± 7.4", "unit": "J/K/mol"}, {"measurement": "molar heat capacity at constant pressure", "setting": "326.13 K, Liquid", "value": "373.42 ± 7.5", "unit": "J/K/mol"}, {"measurement": "molar heat capacity at constant pressure", "setting": "330.1 K, Liquid", "value": "378.15 ± 7.6", "unit": "J/K/mol"}]}
